This is an account of results in publication PMC9740131.

This experiment deals with LIM domain and actin binding 1 (LIMA1) (human (endogenous in Huh7)), Q9UHB6. Nature of the experiment: co-IP; endogenous proteins of Huh7 cells lysed with NP-40 and 1% PMSF; Pierce Magnetic IP/Co-IP Kit; western blotting. The note with it: remark: other sources report otherwise. On the technique in general: Immunoblotting shows a protein as a band on a membrane.

These are yes or no findings as the source states them, for the method shown. Binding seen in cells or lysates may run through a third protein.

B1: PINK1, Q9BXM7 78-581 (protein)
chain: AARLQRQFVVRAWGCAGPCGRAVFLAFGLGLGLIEEKQAESRRAVSACQEIQAIFTQKSKPGPDPLDTRRLQGFRLEEYLIGQSIGKGCSAAVYEATMPTLPQNLEVTKSTGLLPGRGPGTSAPGEGQERAPGAPAFPLAIKMMWNISAGSSSEAILNTMSQELVPASRVALAGEYGAVTYRKSKRGPKQLAPHPNIIRVLRAFTSSVPLLPGALVDYPDVLPSRLHPEGLGHGRTLFLVMKNYPCTLRQYLCVNTPSPRLAAMMLLQLLEGVDHLVQQGIAHRDLKSDNILVELDPDGCPWLVIADFGCCLADESIGLQLPFSSWYVDRGGNGCLMAPEVSTARPGPRAVIDYSKADAWAVGAIAYEIFGLVNPFYGQGKAHLESRSYQEAQLPALPESVPPDVRQLVRALLQREASKRPSARVAANVLHLSLWGEHILALKNLKLDKMVGWLLQQSAATLLANRLTEKCCVETKMKMLFLANLECETLCQAALLLCSWRAAL
Take B1: the binding result was “no binding”.
